# Results from paper PMC6386760.
# B1: OsJAZ7, yeast two-hybrid fusion (protein, UniProt Q8H395 1-244)
# chain: MAASARPVGVGGERATSFAMACSLLSRYVRQNGAAAAELGLGIRGEGEAPRAAPATMSLLPGEAERKKETMELFPQSAGFGQQDAITADSAADAREQEPEKRQLTIFYGGKVLVFNDFPADKAKGLMQLASKGSPVAPQNAAAPAPAAVTDNTKAPMAVPAPVSSLPTAQADAQKPARANASDMPIARKASLHRFLEKRKDRLNAKTPYQASPSDATPVKKEPESQPWLGLGPNAVVKPIERGQ
# B2: OsJAZ11, yeast two-hybrid fusion (protein, UniProt Q8GRS2 1-209)
# chain: MAGSSEQQLVANAAATTVAGNGSRFAVTCGLLRQYMKEHSGSNGGGGFLPAVTAMSLMTGGADAEEEAPEVRKTMELFPQQAGTLKDTQERKEITEKAQLTIFYGGSVVVFDDFPAEKAGELMKLAGSRDSTAAAAVSDAGAAAGQPCLPDMPIARKVSLQRFLEKRKNRIVVAEPLPESEKKEAESSKRAKKDDGGASWLQVNPTLSL
# B3: OsJAZ12, yeast two-hybrid fusion (protein, UniProt Q7XEZ1 1-171)
# chain: MAAAGSSSRFAVTCGLLSQYMRERQQPQPPVTVLEAVAEEEEEEDARTMQLFPPRAAAADGVATPSAGTAPLTIFYDGRMVVVDDVPVEKAAELMRLAGSACSPPQPAHAAALPEMPIARKASLQRFLQKRKHRITTTSEPYKKAAVASPAPEKSFAVAPVKDEPATWLGL
# B4: OsJAZ3 (Jasmonate Zim-Domain3), yeast two-hybrid fusion (protein, UniProt Q6ZJU3 1-427)
# chain: MERDFLGAIWRKEEAAGKPEEHSDYRGGGGGASAAMQWQFPATKVGAASSAFMSFRSSAAAAREEDPKEAAVFDRFSLSGFRPPPRPSPGDAFDGAAAMKQRQFGFNGRQQYAAAAQHGHREQGVDSYGVAAPHHFPSPSPSPRHPVPFGHANPMLRVHSLPNVAGGSPYRNQSFSVGNSVAGSTVGVYGGPRDLQNPKVTQMTIFYDGLVNVFDNIPVEKAQELMLLASRASIPSPPSAARKSDSPISAAAKLTVPEALPARQIVVQKPEASVPLVSGVSNPITIVSQAVTLPKSFSSSNDSAGPKSGGLPLAVTPLSQASPSQPIPVATTNASAIMPRAVPQARKASLARFLEKRKERVSSVAPYPSSKSPLESSDTIGSPSTPSKSSCTDITPSTNNCEDSLCLGQPRNISFSSQEPPSTKLQI
# B5: OsJAZ1, yeast two-hybrid fusion (protein, UniProt Q7XPM8 1-216)
# chain: MDLLEKKNIKKGGEVEEEVARKGEERKEEEVVVEEKSHQQQQQQGEEELVGLSLAGGRPKVFPMSSPPPNPSQLTIFYGGSVCVYDSVPPEKAQAIMLIAAAAAAAASATKSNAAIAVKPPVMPAANATQAAVSPVLTRSLSLQSTSVATGQPQVAADPSSICKLQADLPIARRHSLQRFLEKRRDRLVSKAPYPTKSSEGMEASGMEVTAEGKAQ
# B6: OsJAZ9, yeast two-hybrid fusion (protein, UniProt Q8GSI0 1-179)
# chain: MASTDPMTRRFAVACGVLSQYVKANSSQPSTAAPVAQGVSGLMAAAAAAAAAPVVQEPGCEVDGGGQQFTIFYAGKVVVIDRCTPAMAAELMRFASAAQGGGGAPEAPPALVDMPIARKASLKRFLAKRKATPASARSSYVVRAAAAEEEQPPAKKAKAAVERREDWLALGSLGHMHSR
# Target: OsbHLH96, yeast two-hybrid fusion (rice (Oryza sativa)) (UniProt B7F0D7)
# Test: two-hybrid; Gal4 system (pGBKT7 / pGADT7); library screen with pGBKT7-OsHLH61 in AH109 and pairwise tests; growth on SD-LTHA (without Leu, Trp, His, Ade)
row,binding,Binder
1,no binding,B1
2,no binding,B2
3,no binding,B3
4,binds,B4
5,no binding,B5
6,no binding,B6

# These are yes or no findings as the source states them, for the method shown. Binding can be weak; no strength is given. Where a sequence is shown, tags or fusion partners need not be part of it.
